In patent publication US20120015887A1, “SYNTHETIC PEPTIDE AND USES THEREOF” (priority 2009, published 2012):
Not every detail of the peptide structures is certain; ends, links or a residue may be inferred. At least one structure is not confirmed: it was looked up by name or label, or the drawing left a doubt. Marks after values point to notes of the source that are not given here. Bridge positions count the residues as written; N and C are the ends. Side chains are listed from the residue outwards. Peptide text beside a SMILES is read from it. I, II: the chains in the order shown.

Legend:
Newcastle Disease Virus = test system: Newcastle Disease Virus; parameters: species or system SPF chickens; conditions: in vivo
[1] = test system: transplanted H22 liver cancer tumor; assay: Growth of transplanted H22 liver cancer tumor in Kunming mice; assay type: in vivo; conditions: for Tumor weight (W) / Tumor volume (V) / Tumor inhibition ratio (%) V / Tumor inhibition ratio (%) W: 2 mg/kg, ip × 5; for Tumor weight (W): animals killed 12 days later; for Tumor volume (V): end of test (Table 1); for Tumor inhibition ratio (%) V: based on the tumor volume; for Tumor inhibition ratio (%) W: based on the tumor weight
[2] = The 5th day after administration, 2 mg/kg ip
[3] = The 7th day after administration, 2 mg/kg ip
[4] = The 9th day after administration, 2 mg/kg ip
[5] = The 11th day after administration, 2 mg/kg ip

Row | Compound | HI antibody titer, Mean value (Newcastle Disease Virus) | HI antibody titer, Serial number 1 (Newcastle Disease Virus) | HI antibody titer, Serial number 2 (Newcastle Disease Virus) | HI antibody titer, Serial number 3 (Newcastle Disease Virus) | HI antibody titer, Serial number 4 (Newcastle Disease Virus) | HI antibody titer, Serial number 5 (Newcastle Disease Virus) | HI antibody titer, Serial number 6 (Newcastle Disease Virus) | HI antibody titer, Serial number 7 (Newcastle Disease Virus) | HI antibody titer, Serial number 8 (Newcastle Disease Virus) | HI antibody titer, Serial number 9 (Newcastle Disease Virus) | HI antibody titer, Serial number 10 (Newcastle Disease Virus) | Tumor weight (W) [1] | Tumor volume (V) [1] | Tumor volume (mm^3) [1, 2] | Tumor volume (mm^3) [1, 3] | Tumor volume (mm^3) [1, 4] | Tumor volume (mm^3) [1, 5] | Tumor inhibition ratio (%) V [1] | Tumor inhibition ratio (%) W [1] | HI antibody titer compared with the (TKPR)4>K2>K group (Newcastle Disease Virus) | other results
1 | C[C@@H](O)[C@H](N)C(=O)N[C@@H](CCCCN)C(=O)N1CCC[C@H]1C(=O)N[C@@H](CCCNC(=N)N)C(=O)NCCCC[C@H](NC(=O)[C@H](CCCNC(=N)N)NC(=O)[C@@H]1CCCN1C(=O)[C@H](CCCCN)NC(=O)[C@@H](N)[C@@H](C)O)C(=O)NCCCC[C@H](NC(=O)[C@H](CCCCNC(=O)[C@H](CCCNC(=N)N)NC(=O)[C@@H]1CCCN1C(=O)[C@H](CCCCN)NC(=O)[C@@H](N)[C@@H](C)O)NC(=O)[C@H](CCCNC(=N)N)NC(=O)[C@@H]1CCCN1C(=O)[C@H](CCCCN)NC(=O)[C@@H](N)[C@@H](C)O)C(=O)O [(TKPR)4>K2>K, reference compound] (I: H-TKPRK([Arg-Pro-Lys-Thr])K-OH / II: H-TKPRK([Arg-Pro-Lys-Thr]); amide I:6-II:C) | 4.1 | 4 | 5 | 4 | 3 | 5 | 4 | 2 | 5 | 4 | 5 | – | – | – | – | – | – | – | – | – | –
2 | C[C@@H](O)[C@H](N)C(=O)N[C@@H](CCCCN)C(=O)N1CCC[C@H]1C(=O)N[C@@H](CCCNC(=N)N)C(=O)O [TKPR, Thr-Lys-Pro-Arg, reference compound] (H-TKPR-OH) | – | – | – | – | – | – | – | – | – | – | – | 2.43 ± 0.91 g | 2830.9 ± 952.5 mm^3 | 53.6 ± 37.3 mm^3 | 571.7 ± 204.6 mm^3 | 1623.7 ± 483.4 mm^3 | 2830.9 ± 952.5 mm^3 | 23.4% | 22.6% | – | –
3 | C[C@@H](O)[C@H](N)C(=O)N[C@@H](CCCCN)C(=O)N1CCC[C@H]1C(=O)N[C@@H](CCCNC(=N)N)C(=O)NCCCC[C@H](NC(=O)[C@H](CCCNC(=N)N)NC(=O)[C@@H]1CCCN1C(=O)[C@H](CCCCN)NC(=O)[C@@H](N)[C@@H](C)O)C(=O)NCCCC[C@H](NC(=O)[C@H](CCCCNC(=O)[C@H](CCCNC(=N)N)NC(=O)[C@@H]1CCCN1C(=O)[C@H](CCCCN)NC(=O)[C@@H](N)[C@@H](C)O)NC(=O)[C@H](CCCNC(=N)N)NC(=O)[C@@H]1CCCN1C(=O)[C@H](CCCCN)NC(=O)[C@@H](N)[C@@H](C)O)C(=O)N[C@H](C(=O)N[C@@H](CCCCN)C(=O)N1CCC[C@H]1C(=O)N[C@@H](CCCNC(=N)N)C(=O)O)[C@@H](C)O [(TKPR)4>K2>K-TKPR] (I: H-TKPRK([Arg-Pro-Lys-Thr])KTKPR-OH / II: H-TKPRK([Arg-Pro-Lys-Thr]); amide I:6-II:C) | 4.6 | 4 | 3 | 6 | 5 | 4 | 5 | 6 | 5 | 3 | 5 | – | – | – | – | – | – | – | – | significantly higher | –
4 | C[C@@H](O)[C@H](N)C(=O)N[C@@H](CCCCN)C(=O)N1CCC[C@H]1C(=O)N[C@@H](CCCNC(=N)N)C(=O)NCCCC[C@H](NC(=O)[C@H](CCCNC(=N)N)NC(=O)[C@@H]1CCCN1C(=O)[C@H](CCCCN)NC(=O)[C@@H](N)[C@@H](C)O)C(=O)NCCCC[C@H](NC(=O)[C@H](CCCCNC(=O)[C@H](CCCNC(=N)N)NC(=O)[C@@H]1CCCN1C(=O)[C@H](CCCCN)NC(=O)[C@@H](N)[C@@H](C)O)NC(=O)[C@H](CCCNC(=N)N)NC(=O)[C@@H]1CCCN1C(=O)[C@H](CCCCN)NC(=O)[C@@H](N)[C@@H](C)O)C(=O)NCC(=O)O [(TKPR)4>K2>K-G] (I: H-TKPRK([Arg-Pro-Lys-Thr])KG-OH / II: H-TKPRK([Arg-Pro-Lys-Thr]); amide I:6-II:C) | 4.7 | 3 | 5 | 3 | 4 | 6 | 4 | 4 | 6 | 5 | 7 | 1.62 ± 0.85 g | 1628.3 ± 837.6*** mm^3 | 48.2 ± 32.0 mm^3 | 390.2 ± 205.2* mm^3 | 1251.6 ± 500.3** mm^3 | 1628.3 ± 837.6*** mm^3 | 55.9% | 48.4% | significantly higher | Effect on growth of the transplanted H22 tumor (in words) ([1]; 2 mg/kg ip, P<0.001): significantly inhibited the growth of the tumor
